Laboratory results from PMC5836448.
Results are given in words; binding and its absence hold for the method and conditions named. In cells and extracts the contact can be indirect. Some results given as binding are weak or reduced against the parent protein; the word gives no strength.

Protein sequences, listed by entry. Tags and fused reporters are not part of them.
UniProt Q86V15: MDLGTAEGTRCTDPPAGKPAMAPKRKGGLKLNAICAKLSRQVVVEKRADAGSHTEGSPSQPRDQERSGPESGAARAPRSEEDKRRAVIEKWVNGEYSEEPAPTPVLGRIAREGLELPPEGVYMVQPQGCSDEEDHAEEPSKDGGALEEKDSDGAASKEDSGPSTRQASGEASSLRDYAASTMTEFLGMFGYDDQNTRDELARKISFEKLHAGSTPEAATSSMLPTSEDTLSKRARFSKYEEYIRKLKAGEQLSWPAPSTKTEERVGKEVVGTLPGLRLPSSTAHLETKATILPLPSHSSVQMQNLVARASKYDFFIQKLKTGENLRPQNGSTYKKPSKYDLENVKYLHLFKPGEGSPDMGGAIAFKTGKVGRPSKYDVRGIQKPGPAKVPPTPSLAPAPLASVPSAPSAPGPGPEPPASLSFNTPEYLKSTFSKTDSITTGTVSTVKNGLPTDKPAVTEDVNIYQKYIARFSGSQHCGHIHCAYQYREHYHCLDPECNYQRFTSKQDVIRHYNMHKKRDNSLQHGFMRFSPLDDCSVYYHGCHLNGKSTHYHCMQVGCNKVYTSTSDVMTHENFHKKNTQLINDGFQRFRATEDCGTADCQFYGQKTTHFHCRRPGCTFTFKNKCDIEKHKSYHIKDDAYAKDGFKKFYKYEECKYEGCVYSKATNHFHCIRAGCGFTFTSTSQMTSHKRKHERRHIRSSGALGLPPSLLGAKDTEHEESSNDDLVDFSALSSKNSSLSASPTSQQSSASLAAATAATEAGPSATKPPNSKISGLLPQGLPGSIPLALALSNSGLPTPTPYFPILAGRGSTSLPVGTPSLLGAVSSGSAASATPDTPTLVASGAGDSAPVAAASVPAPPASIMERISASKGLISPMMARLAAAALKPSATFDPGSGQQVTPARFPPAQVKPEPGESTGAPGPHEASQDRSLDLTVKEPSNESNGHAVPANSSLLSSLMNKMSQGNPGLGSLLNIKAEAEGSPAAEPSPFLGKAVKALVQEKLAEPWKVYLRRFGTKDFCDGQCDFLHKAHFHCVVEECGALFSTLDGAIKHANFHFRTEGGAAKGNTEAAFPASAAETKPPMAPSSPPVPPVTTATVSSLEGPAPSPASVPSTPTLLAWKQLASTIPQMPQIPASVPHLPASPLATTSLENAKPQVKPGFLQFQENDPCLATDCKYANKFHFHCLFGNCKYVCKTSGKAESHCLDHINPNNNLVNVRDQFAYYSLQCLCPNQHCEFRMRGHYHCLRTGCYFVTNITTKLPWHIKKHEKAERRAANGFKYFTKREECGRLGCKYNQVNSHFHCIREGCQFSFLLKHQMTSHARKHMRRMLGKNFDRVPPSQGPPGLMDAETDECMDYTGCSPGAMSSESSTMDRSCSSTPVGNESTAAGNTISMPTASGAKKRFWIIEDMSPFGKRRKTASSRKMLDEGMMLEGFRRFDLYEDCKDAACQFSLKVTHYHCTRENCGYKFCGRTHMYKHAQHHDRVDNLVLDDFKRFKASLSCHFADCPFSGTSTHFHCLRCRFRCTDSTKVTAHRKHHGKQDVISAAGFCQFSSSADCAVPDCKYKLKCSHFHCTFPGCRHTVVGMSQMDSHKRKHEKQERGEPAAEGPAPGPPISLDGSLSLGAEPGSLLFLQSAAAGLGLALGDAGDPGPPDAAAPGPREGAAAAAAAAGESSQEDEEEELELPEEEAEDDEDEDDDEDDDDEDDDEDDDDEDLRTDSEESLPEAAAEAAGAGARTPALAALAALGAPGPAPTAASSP

Biological target: raf-1 proto-oncogene, serine/threonine kinase (human (endogenous in HCCLM3 and PLC/PRF/5)) (UniProt P04049)
Experiment: co-IP; pre-cleared whole cell lysates of HCCLM3^CASZ1, HCCLM3 and PLC/PRF/5 cells; antibody against CASZ1 or RAF1 conjugated to AminoLink Plus Resin, 4 °C overnight; gentle elution buffer; western blot

binding: binds
Substance: Castor zinc finger 1 (from UniProt Q86V15 1-1759)
